Binding data for four molecules are collected here from paper PMC7707522.

The chains behind the UniProt entries cited, without tags or fusion partners.
UniProt P03146: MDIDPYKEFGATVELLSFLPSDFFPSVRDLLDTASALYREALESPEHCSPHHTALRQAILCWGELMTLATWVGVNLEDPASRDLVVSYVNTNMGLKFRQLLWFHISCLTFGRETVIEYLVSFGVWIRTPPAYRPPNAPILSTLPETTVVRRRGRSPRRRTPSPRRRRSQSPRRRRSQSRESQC
UniProt P38159: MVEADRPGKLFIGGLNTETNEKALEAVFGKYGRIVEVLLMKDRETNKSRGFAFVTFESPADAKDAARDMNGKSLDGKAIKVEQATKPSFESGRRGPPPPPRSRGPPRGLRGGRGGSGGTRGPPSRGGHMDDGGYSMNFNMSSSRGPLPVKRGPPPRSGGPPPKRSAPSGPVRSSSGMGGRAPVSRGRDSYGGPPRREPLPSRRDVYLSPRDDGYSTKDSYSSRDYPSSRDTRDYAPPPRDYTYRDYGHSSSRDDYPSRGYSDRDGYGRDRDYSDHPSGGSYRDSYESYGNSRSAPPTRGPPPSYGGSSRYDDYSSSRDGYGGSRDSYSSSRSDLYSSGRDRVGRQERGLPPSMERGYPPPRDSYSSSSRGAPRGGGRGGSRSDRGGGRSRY
UniProt Q07955: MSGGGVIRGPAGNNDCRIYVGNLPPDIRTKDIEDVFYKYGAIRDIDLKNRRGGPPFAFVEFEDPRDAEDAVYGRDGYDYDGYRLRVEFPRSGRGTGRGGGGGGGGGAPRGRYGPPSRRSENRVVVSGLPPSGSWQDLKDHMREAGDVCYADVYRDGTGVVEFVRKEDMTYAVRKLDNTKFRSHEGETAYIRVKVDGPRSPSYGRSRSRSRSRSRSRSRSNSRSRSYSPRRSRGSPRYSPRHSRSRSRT
UniProt P62995: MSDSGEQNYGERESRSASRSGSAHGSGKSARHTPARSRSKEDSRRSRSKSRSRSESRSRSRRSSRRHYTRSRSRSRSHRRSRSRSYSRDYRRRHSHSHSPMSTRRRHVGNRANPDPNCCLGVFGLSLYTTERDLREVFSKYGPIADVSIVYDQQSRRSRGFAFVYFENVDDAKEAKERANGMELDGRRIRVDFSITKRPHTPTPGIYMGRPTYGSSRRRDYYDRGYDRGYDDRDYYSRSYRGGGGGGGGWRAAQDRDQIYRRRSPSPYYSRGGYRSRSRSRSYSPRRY

B1: SRSF5 (protein, UniProt Q13243 1-272)
chain: MSGCRVFIGRLNPAAREKDVERFFKGYGRIRDIDLKRGFGFVEFEDPRDADDAVYELDGKELCSERVTIEHARARSRGGRGRGRYSDRFSSRRPRNDRRNAPPVRTENRLIVENLSSRVSWQDLKDFMRQAGEVTFADAHRPKLNEGVVEFASYGDLKNAIEKLSGKEINGRKIKLIEGSKRHSRSRSRSRSRTRSSSRSRSRSRSRSRKSYSRSRSRSRSRSRSKSRSVSRSPVPEKSQKRGSSSRSKSPASVDRQRSRSRSRSRSVDSGN

Results are given in words; binding and its absence hold for the method and conditions named. In cells and extracts the contact can be indirect. These calls come from enrichment with a bait or labelling near it, and not all partners need be listed.

The target of this experiment is HBV core protein (HBc) fused at its N-terminus to a streptavidin (ST)-binding peptide (Hepatitis B virus) (UniProt P03146). Put plainly: affinity purification with mass spectrometry; ST-HBc complexes purified from nuclear extracts of dHepaRG-TR-ST-HBc cells on Strep-Tactin gravity columns, eluted with desthiobiotin; extracts with or without Benzonase digestion (40 min on ice); control: cells with untagged wt HBc; label-free quantitative MS, three purifications for each ….
In the case of RBMX (from UniProt P38159 1-391), the binding entry was “binds”.

For the molecule SRSF1 (from UniProt Q07955 1-248), the binding entry is listed as “binds”.

As to TRA2B (from UniProt P62995 1-288), the binding result is “binds”.

Consider B1, for which the binding result is “binds”.
